# Assay results reported in PubChem BioAssay AID1347073 (National Center for Advancing Translational Sciences (NCATS), 2019).
# This list holds what a sample rich in hits left over. Results filed as inconclusive are left out. The source made the active and inactive calls. The call rests on the fitted dose curve; in most records, active means well fitted activation curve with a large enough effect; inconclusive means small, poorly fitted or top-dose-only effect; inactive means no such curve, though single readings can be large or run the other way.
# Experiment: qHTS of TDP-43 Inhibitors: NCGC Sytravon Library Screen; further: 0% is about no effect; nearly all actives have a fitted effect of over 55% in size
# Conditions: yeast TDP-43 toxicity rescue, BacTiter-Glo growth, 24 h; at 46.1 µM (top of the series)
# From the text: The goal of this project is to identify new chemical probes capable of reversing the toxicity associated with TDP-43 which is associated with frontotemporal lobar degeneration and amyotrophic lateral sclerosis. These compounds will provide a complementary approach to deciphering the tangled mechanisms of toxicity and protection that we have uncovered through genome-wide genetic screens and are beginning to uncover in a large-scale proteomics analysis with mass spectroscopy. To this end, a miniaturized assay was developed to be screened against the Molecular Libraries Small Molecule Repository (MLSMR) to discover TDP-43 inhibitors. Please note that in the set-up this yeast-based assay compounds that inhibit as TDP-43, have a read-out as activators. NIH Chemical Genomics Center [NCGC] NIH Molecular Libraries Probe Centers Network [MLPCN] Assay Submitter (PI): Susan Lindquist, Whitehead Institute/MIT MLPCN Grant: R21 NS060957
# Dispense 2.5 microL yeast galactose medium per 1536-well plate, pin compound, dispense 2.5 microL TDP-43 expressing yeast in galactose medium at OD600=0.02 (pregrown in raffinose medium to mid-log phase) per well, incubate for 24 hr at 30 deg C, and cell growth will be measured using 5 microL of Bactiter/Glo reagent to entire plate and read using Luminescence Protocol in ViewLux.
row,SMILES,growth rescue (activation)
1,O=S(=O)(c1ccc2nc(SCc3cccc(Cl)c3)[nH]c2c1)N1CCOCC1,inactive: 12.3%
